Results taken from article PMC7014150.

Molecular target: TaTDRL-nEYFP (full-length TaTDRL with the N-terminal part of enhanced YFP) (wheat (Triticum aestivum L.))
Test: split reporter; BiFC: nEYFP and cEYFP fusions, Agrobacterium cells mixed 1:1 and infiltrated into tobacco leaves; confocal microscopy; signal in the nucleus

B1: AtPIF1-cEYFP (full-length AtPIF1 with the C-terminal part of enhanced YFP) (protein, UniProt Q8GZM7 1-478)
chain: MHHFVPDFDTDDDYVNNHNSSLNHLPRKSITTMGEDDDLMELLWQNGQVVVQNQRLHTKKPSSSPPKLLPSMDPQQQPSSDQNLFIQEDEMTSWLHYPLRDDDFCSDLLFSAAPTATATATVSQVTAARPPVSSTNESRPPVRNFMNFSRLRGDFNNGRGGESGPLLSKAVVRESTQVSPSATPSAAASESGLTRRTDGTDSSAVAGGGAYNRKGKAVAMTAPAIEITGTSSSVVSKSEIEPEKTNVDDRKRKEREATTTDETESRSEETKQARVSTTSTKRSRAAEVHNLSERKRRDRINERMKALQELIPRCNKSDKASMLDEAIEYMKSLQLQIQMMSMGCGMMPMMYPGMQQYMPHMAMGMGMNQPIPPPSFMPFPNMLAAQRPLPTQTHMAGSGPQYPVHASDPSRVFVPNQQYDPTSGQPQYPAGYTDPYQQFRGLHPTQPPQFQNQATSYPSSSRVSSSKESEDHGNHTTG
Question: How did the binding turn out when B1 was run?
Answer: binds

These are yes or no findings as the source states them, for the method shown. Binding seen in cells or lysates may run through a third protein. A result given as binding can be weak or reduced; the word gives no strength. Where a sequence is shown, tags or fusion partners need not be part of it.
